Measured values from the supplement of paper PMC10849652.
The other results are listed elsewhere or left out.

The chains behind the UniProt entries cited, without tags or fusion partners. Where a name states a change or a piece, a line headed by the entry shows the natural chain unless it says otherwise.
UniProt Q9BSR8: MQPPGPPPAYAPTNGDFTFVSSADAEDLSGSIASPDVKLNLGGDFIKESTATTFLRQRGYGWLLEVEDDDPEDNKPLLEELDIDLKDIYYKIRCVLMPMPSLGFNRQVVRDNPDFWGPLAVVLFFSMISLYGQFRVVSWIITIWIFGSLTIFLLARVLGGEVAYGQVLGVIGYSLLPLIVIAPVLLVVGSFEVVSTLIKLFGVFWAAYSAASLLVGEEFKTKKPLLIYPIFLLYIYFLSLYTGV
UniProt Q9UBH6: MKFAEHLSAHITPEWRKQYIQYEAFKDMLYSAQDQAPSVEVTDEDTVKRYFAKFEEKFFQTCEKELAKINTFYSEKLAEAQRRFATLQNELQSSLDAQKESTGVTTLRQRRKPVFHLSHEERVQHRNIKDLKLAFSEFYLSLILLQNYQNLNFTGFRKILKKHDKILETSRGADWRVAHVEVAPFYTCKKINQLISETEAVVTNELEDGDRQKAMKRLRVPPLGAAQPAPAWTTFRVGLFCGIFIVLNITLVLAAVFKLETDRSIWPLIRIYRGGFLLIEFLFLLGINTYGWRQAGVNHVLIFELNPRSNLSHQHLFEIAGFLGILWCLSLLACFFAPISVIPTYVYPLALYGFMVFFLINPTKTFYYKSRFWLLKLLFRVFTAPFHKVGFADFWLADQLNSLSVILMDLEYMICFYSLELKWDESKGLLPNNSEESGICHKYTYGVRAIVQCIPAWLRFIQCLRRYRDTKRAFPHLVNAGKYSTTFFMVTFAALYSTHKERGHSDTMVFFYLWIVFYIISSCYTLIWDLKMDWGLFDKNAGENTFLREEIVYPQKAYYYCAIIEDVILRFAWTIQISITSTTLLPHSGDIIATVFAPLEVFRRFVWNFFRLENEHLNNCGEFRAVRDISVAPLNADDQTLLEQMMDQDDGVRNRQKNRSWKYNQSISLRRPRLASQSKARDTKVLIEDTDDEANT
UniProt Q8WU90: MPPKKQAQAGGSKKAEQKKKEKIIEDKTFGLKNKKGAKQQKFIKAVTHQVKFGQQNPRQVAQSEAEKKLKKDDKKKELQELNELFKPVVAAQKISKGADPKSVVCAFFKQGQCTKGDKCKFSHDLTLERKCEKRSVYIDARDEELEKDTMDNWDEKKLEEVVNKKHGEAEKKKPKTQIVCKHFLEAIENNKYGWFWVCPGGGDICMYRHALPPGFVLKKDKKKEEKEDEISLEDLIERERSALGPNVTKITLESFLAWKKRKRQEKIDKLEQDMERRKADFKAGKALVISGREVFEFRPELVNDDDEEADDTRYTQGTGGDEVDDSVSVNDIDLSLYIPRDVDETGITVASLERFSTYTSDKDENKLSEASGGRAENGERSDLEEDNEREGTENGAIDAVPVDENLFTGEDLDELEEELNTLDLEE
UniProt P52747: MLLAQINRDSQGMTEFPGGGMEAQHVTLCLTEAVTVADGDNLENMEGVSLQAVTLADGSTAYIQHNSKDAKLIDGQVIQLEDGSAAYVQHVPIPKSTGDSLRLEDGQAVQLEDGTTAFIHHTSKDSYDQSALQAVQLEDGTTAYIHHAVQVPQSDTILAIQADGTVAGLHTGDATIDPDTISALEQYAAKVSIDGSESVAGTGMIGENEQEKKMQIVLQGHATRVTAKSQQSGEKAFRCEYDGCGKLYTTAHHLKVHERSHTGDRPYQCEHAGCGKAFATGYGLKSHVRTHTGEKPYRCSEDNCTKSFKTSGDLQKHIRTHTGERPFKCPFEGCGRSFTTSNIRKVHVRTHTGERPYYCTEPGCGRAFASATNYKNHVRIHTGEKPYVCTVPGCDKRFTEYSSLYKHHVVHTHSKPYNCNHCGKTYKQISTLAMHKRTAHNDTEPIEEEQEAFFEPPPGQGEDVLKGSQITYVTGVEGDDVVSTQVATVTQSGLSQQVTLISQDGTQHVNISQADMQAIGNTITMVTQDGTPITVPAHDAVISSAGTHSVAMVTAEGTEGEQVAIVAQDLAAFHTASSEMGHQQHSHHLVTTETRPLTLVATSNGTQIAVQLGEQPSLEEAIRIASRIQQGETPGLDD
UniProt Q9UPT8: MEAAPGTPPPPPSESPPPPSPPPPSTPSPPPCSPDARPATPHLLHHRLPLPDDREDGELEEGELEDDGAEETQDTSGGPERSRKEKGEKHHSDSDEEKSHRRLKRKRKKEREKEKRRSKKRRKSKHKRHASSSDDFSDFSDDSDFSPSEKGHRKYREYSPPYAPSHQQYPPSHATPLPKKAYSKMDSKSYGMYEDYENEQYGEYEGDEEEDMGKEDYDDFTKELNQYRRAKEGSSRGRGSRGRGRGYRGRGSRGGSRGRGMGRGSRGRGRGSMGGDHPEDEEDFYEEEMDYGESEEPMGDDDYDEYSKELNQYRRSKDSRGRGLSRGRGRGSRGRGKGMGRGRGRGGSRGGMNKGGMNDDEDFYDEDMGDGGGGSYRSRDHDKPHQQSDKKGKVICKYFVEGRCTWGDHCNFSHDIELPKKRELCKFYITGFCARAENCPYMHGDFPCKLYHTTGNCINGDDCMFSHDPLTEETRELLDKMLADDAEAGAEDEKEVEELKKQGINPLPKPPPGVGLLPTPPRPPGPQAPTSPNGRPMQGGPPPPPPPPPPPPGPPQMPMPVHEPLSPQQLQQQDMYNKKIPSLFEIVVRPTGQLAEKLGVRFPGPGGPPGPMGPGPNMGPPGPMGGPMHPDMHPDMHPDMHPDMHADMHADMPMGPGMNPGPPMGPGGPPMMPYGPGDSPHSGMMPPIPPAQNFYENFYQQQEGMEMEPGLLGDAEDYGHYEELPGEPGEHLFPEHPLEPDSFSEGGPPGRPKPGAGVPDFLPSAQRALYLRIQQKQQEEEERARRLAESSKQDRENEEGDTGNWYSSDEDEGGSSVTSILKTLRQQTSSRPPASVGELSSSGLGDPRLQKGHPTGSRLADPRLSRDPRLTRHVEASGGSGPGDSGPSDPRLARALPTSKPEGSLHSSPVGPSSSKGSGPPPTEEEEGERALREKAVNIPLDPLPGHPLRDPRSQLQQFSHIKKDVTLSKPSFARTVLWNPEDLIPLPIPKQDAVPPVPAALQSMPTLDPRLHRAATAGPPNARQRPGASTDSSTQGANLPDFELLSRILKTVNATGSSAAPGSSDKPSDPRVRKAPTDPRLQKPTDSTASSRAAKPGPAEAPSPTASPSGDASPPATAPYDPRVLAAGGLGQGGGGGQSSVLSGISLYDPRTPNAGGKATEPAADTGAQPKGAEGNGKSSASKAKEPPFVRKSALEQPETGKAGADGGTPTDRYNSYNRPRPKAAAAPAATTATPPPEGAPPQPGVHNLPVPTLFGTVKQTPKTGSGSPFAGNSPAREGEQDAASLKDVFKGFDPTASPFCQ
UniProt Q04917: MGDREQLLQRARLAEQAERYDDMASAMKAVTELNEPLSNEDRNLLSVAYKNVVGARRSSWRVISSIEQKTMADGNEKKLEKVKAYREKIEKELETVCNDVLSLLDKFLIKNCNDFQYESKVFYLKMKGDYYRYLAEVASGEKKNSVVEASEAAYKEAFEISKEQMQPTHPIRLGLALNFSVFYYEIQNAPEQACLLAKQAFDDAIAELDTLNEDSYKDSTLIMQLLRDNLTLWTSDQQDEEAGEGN
UniProt Q9ULJ6: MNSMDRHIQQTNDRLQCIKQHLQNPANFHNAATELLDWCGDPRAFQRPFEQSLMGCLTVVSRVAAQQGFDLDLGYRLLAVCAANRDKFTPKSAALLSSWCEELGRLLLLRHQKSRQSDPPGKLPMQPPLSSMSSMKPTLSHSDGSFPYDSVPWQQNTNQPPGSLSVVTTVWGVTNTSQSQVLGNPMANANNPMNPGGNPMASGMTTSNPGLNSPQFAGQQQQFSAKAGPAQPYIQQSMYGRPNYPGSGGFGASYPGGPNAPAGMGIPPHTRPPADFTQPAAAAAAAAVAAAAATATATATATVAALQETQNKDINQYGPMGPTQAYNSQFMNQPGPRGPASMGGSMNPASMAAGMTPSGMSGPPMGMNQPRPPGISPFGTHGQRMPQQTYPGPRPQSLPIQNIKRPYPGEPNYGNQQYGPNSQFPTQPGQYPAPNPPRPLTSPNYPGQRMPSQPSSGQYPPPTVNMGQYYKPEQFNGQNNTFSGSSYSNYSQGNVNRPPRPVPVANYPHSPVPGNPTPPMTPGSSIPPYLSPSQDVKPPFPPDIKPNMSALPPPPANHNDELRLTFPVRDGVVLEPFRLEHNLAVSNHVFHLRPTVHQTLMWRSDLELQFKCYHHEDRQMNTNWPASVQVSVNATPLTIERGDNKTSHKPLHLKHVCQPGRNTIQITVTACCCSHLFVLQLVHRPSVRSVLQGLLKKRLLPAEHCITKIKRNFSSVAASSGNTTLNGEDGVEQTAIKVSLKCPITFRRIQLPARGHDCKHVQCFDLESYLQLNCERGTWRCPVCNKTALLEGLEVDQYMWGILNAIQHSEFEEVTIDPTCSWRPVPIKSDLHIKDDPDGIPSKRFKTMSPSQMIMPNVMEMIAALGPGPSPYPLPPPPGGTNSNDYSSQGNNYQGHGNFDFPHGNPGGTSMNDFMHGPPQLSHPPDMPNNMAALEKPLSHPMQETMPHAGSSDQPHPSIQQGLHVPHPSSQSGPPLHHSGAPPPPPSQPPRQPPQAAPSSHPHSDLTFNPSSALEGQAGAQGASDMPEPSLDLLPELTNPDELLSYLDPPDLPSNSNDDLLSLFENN
UniProt Q9BWQ6: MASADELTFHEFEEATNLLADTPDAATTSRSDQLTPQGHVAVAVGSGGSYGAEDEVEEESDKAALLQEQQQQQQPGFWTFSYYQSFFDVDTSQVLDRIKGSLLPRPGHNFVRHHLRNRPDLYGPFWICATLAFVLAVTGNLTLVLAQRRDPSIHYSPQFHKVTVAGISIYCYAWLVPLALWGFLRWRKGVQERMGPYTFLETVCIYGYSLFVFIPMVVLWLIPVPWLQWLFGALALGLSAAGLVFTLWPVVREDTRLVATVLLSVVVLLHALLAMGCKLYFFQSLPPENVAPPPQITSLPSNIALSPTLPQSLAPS
UniProt Q6NZY4: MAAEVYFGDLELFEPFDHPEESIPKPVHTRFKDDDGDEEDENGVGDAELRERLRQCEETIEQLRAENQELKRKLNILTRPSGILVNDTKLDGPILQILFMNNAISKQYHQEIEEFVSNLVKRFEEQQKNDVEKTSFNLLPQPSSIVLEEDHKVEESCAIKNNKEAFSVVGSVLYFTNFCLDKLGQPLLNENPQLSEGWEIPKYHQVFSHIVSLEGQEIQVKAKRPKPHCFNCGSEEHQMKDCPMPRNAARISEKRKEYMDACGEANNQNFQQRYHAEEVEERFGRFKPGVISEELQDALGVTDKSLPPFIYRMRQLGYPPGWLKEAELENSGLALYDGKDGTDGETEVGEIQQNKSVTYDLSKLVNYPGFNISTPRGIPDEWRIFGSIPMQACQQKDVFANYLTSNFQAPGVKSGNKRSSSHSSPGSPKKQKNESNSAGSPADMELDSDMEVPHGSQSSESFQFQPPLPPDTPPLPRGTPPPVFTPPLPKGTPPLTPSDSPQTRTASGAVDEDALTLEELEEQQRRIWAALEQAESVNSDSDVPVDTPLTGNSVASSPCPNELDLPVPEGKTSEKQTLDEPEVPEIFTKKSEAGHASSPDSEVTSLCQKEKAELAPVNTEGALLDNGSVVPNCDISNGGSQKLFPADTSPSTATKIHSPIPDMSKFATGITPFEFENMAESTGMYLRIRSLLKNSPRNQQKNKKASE
UniProt O95619, whole entry, looked up: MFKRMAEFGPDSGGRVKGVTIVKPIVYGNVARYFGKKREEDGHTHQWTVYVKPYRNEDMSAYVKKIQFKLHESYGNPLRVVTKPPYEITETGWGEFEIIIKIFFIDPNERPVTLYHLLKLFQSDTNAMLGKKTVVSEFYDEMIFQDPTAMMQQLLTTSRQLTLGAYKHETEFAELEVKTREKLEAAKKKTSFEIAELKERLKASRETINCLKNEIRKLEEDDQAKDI
UniProt Q9C0B5: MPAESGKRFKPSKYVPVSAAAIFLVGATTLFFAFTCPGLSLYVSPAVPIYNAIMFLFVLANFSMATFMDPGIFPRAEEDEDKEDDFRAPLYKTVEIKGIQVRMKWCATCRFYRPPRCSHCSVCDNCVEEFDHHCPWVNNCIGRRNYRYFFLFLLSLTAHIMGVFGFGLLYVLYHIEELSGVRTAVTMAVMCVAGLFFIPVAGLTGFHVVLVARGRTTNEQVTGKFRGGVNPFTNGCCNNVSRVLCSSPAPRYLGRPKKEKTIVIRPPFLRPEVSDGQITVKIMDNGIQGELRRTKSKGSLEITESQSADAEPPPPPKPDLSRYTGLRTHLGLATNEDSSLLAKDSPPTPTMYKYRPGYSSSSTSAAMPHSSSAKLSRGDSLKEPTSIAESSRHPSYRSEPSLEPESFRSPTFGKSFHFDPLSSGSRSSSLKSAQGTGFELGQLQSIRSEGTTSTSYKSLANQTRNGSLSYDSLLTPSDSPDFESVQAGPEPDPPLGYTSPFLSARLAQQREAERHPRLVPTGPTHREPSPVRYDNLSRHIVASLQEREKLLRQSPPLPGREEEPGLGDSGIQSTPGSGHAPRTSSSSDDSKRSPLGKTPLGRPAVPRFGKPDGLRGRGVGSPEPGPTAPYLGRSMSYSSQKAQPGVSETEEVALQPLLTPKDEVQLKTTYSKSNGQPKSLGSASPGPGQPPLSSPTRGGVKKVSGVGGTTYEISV

What was measured:
Test in all cases: log2 fold change, soluble protein after heating vs DMSO (PISA); higher = thermal stabilisation; K562 cells, 10 uM, 30 min; active = over 0.2 and 3.5 SD of the protein, either way, in both replicates (recomputed)
[1] = compound: Cc1ccc(NC(=O)c2ccc(CN3CC[C@H](N(C)C)C3)c(C(F)(F)F)c2)cc1Nc1nccc(-c2cncnc2)n1 [bafetinib]
How it was run: (§1)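 Aliquots of K562 cells (2×10^6 cells/mL) treated with 10 μM compound for 30 min were heated for 3 min over 48°C-58°C. After pooling and extraction in PBS with 0.5% NP-40 at 4°C, soluble protein from a 21,000xg, 90 min spin was quantified by TMTpro 16plex LC-MS/MS with channel sums equalised. Thermal stability is expressed against control samples, from duplicates, as a log2 fold change.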

[2] = compound: Cc1cccc(CC(=O)N2CCc3c2ccc(-c2cn(C)c4ncnc(N)c24)c3F)n1
How it was run: as §1

[3] = compound: Cc1cn(-c2cc(NC(=O)c3ccc(C)c(Nc4nccc(-c5cccnc5)n4)c3)cc(C(F)(F)F)c2)cn1 [nilotinib]
How it was run: as §1

[4] = compound: Cc1nc(Nc2n[nH]c3c2CN(C(=O)N[C@H](CN(C)C)c2ccccc2)C3(C)C)c2sccc2n1
How it was run: as §1

[5] = compound: Cc1nc(Nc2ncc(C(=O)Nc3c(C)cccc3Cl)s2)cc(N2CCN(CCO)CC2)n1 [dasatinib]
How it was run: as §1

[6] = compound: Cc1ncc(-c2ccnc(Nc3ccc(S(C)(=O)=O)cc3)n2)n1C(C)C
How it was run: as §1

[7] = compound: Cn1cc(-c2ccc3c(c2)CCN3C(=O)Cc2cccc(C(F)(F)F)c2)c2c(N)ncnc21
How it was run: as §1

[8] = compound: Cn1cc(-c2ccc3nnc(C(F)(F)c4ccc5ncccc5c4)n3n2)cn1
How it was run: as §1

[9] = compound: Cn1cncc1[C@@](N)(c1ccc(Cl)cc1)c1ccc2c(c1)c(-c1cccc(Cl)c1)cc(=O)n2C [tipifarnib]
How it was run: as §1

[10] = compound: FC(F)(F)c1ccc(/C=C/c2nc(COc3ccc(CCCCn4ccnn4)cc3)co2)cc1 [mubritinib]
How it was run: as §1

Measured: log2 fold change

ZC3H8 (UniProt Q8N5P1)
inactive: [1] 0.052 | [2] 0.026 | [3] 0.016 | [4] 0.081 | [5] 0.123 | [6] 0.036 | [7] -0.084 | [8] -0.056 | [9] 0.043 | [10] -0.102

YIPF4 (UniProt Q9BSR8)
active: [9] 0.31
inactive: [1] -0.045 | [2] -0.042 | [3] 0.046 | [4] 0.004 | [5] 0.021 | [6] -0.005 | [7] 0.03 | [8] 0.108 | [10] 0.024

ZC3H13 (UniProt Q5T200)
inactive: [1] -0.396 | [2] -0.338 | [3] -0.216 | [4] 0.005 | [5] 0.032 | [6] 0.015 | [7] 0.146 | [8] -0.042 | [9] 0.066 | [10] -0.293

XRN2 (UniProt Q9H0D6)
inactive: [1] -0.007 | [2] -0.069 | [3] -0.001 | [4] 0.002 | [5] 0.01 | [6] -0.019 | [7] -0.029 | [8] 0.005 | [9] 0.028 | [10] -0.015

XPR1 (UniProt Q9UBH6)
inactive: [1] 0.01 | [2] -0.061 | [3] 0.015 | [4] -0.063 | [5] -0.008 | [6] 0.009 | [7] 0.035 | [8] -0.015 | [9] -0.004 | [10] -0.015

XRCC4 (UniProt Q13426)
inactive: [1] -0.039 | [2] -0.014 | [3] -0.014 | [4] 0.024 | [5] 0.009 | [6] -0.026 | [7] 0.011 | [8] 0.013 | [9] 0.016 | [10] 0.039

ZC3H15 (UniProt Q8WU90)
inactive: [1] 0.043 | [2] -0.04 | [3] 0.03 | [4] 0.055 | [5] 0.054 | [6] 0.037 | [7] -0.045 | [8] -0.064 | [9] 0.002 | [10] -0.011

ZDHHC3 isoform 2 (UniProt Q9NYG2)
inactive: [1] -0.131 | [2] -0.043 | [3] -0.091 | [4] -0.002 | [5] -0.02 | [6] -0.001 | [7] 0.024 | [8] 0 | [9] 0.075 | [10] 0.039

YIPF3 (UniProt Q9GZM5)
inactive: [1] -0.05 | [2] 0.039 | [3] 0.005 | [4] -0.036 | [5] 0.064 | [6] 0.03 | [7] 0.086 | [8] -0.041 | [9] 0.093 | [10] -0.013

Taken from the listing (2 entries):
ZDHHC3 isoform 2 (UniProt Q9NYG2)
inactive: [1] -0.131 | [2] -0.043 | [3] -0.091 | [4] -0.002 | [5] -0.02 | [6] -0.001 | [7] 0.024 | [8] 0 | [9] 0.075 | [10] 0.039

YIPF3 (UniProt Q9GZM5)
inactive: [1] -0.05 | [2] 0.039 | [3] 0.005 | [4] -0.036 | [5] 0.064 | [6] 0.03 | [7] 0.086 | [8] -0.041 | [9] 0.093 | [10] -0.013

Next entries follow.

ZNF143 (UniProt P52747)
inactive: [1] -0.089 | [2] 0.027 | [3] -0.105 | [4] -0.047 | [5] -0.007 | [6] 0.074 | [7] -0.129 | [8] 0.041 | [9] 0.037 | [10] 0.094

ZFAND2B (UniProt Q8WV99)
inactive: [1] -0.011 | [2] -0.082 | [3] -0.001 | [4] -0.049 | [5] -0.011 | [6] 0.022 | [7] 0 | [8] 0.058 | [9] -0.042 | [10] -0.01

ZC3H4 (UniProt Q9UPT8)
inactive: [1] 0.122 | [2] -0.057 | [3] 0.047 | [4] 0.093 | [5] 0.158 | [6] 0.031 | [7] -0.237 | [8] -0.098 | [9] 0.179 | [10] -0.09

YWHAH (UniProt Q04917)
inactive: [1] -0.043 | [2] 0.028 | [3] 0.04 | [4] -0.075 | [5] -0.004 | [6] -0.023 | [7] -0.013 | [8] -0.039 | [9] 0.03 | [10] 0.057

YES1 (UniProt P07947)
active: [4] -0.746 | [5] -0.737
inactive: [1] 0.049 | [2] 0.007 | [3] -0.033 | [6] -0.051 | [7] -0.284 | [8] 0.008 | [9] -0.001 | [10] -0.067

XPO5 (UniProt Q9HAV4)
inactive: [1] -0.037 | [2] 0.036 | [3] -0.07 | [4] -0.118 | [5] -0.11 | [6] -0.054 | [7] 0.026 | [8] 0.004 | [9] -0.071 | [10] 0.006

YARS2 (UniProt Q9Y2Z4)
inactive: [1] 0.064 | [2] 0.01 | [3] 0.022 | [4] -0.323 | [5] -0.237 | [6] 0.083 | [7] 0.041 | [8] 0.022 | [9] 0.048 | [10] -0.158

ZDHHC2 (UniProt Q9UIJ5)
inactive: [1] -0.375 | [2] 0.007 | [3] -0.063 | [4] -0.057 | [6] 0.021 | [8] 0.054 | [9] -0.022 | [10] 0.093

ZBTB10 (UniProt Q96DT7)
inactive: [1] -0.143 | [2] 0.001 | [3] -0.076 | [4] -0.145 | [6] -0.042 | [7] -0.173 | [9] 0.012 | [10] -0.016

ZMIZ1 (UniProt Q9ULJ6)
inactive: [1] -0.065 | [2] 0.007 | [3] -0.014 | [4] -0.021 | [5] 0.016 | [6] -0.073 | [7] 0.028 | [8] 0.02 | [9] -0.034 | [10] 0.067

XIRP2 isoform 8 (UniProt A4UGR9)
inactive: [1] -0.111 | [2] -0.063 | [3] -0.025 | [4] 0 | [5] 0.013 | [6] -0.03 | [7] -0.065 | [9] 0.098 | [10] 0.02

YIPF2 (UniProt Q9BWQ6)
inactive: [1] -0.003 | [3] 0.253 | [4] -0.211 | [6] 0.133 | [7] -0.125 | [8] -0.091

ZCCHC8 (UniProt Q6NZY4)
inactive: [1] -0.043 | [2] 0.004 | [3] -0.006 | [4] 0.043 | [5] -0.108 | [6] 0.026 | [7] -0.049 | [8] -0.062 | [9] -0.023 | [10] 0.049

ZC3H18 (UniProt Q86VM9)
inactive: [1] 0.033 | [2] -0.063 | [3] 0.099 | [4] -0.145 | [5] 0.038 | [6] -0.162 | [7] -0.03 | [8] 0.008 | [9] 0.111 | [10] -0.042

YEATS4 (UniProt O95619)
inactive: [1] -0.041 | [2] 0.031 | [3] 0.054 | [4] -0.023 | [5] 0.066 | [6] -0.052 | [7] 0.067 | [8] -0.039 | [9] 0.067 | [10] 0.012

ZFR (UniProt Q96KR1)
inactive: [1] 0.065 | [2] 0.047 | [3] 0.062 | [4] 0.036 | [5] 0.226 | [6] 0.024 | [7] -0.205 | [8] -0.076 | [10] -0.152

ZMYM4 (UniProt Q5VZL5)
inactive: [1] -0.044 | [2] -0.03 | [3] 0 | [4] 0.071 | [6] -0.039 | [7] 0 | [8] -0.006 | [10] 0.274

ZDHHC5 (UniProt Q9C0B5)
inactive: [1] 0 | [2] -0.067 | [3] 0.091 | [4] -0.037 | [5] 0.019 | [6] -0.009 | [7] -0.02 | [8] -0.009 | [9] 0.013 | [10] 0.025
